Source: PubChem BioAssay AID2685 (National Center for Advancing Translational Sciences (NCATS), 2010)
Some of the results follow. Further columns of the screen follow, without active or inactive calls. Most of these compounds were active or inconclusive in the main read-out, so they are no random draw. Words in brackets tell the shape of the fitted curve; partial curves, single points and poor fits give uncertain potencies.

Assay: qHTS Assay for Lipid Storage Modulators in Drosophila S3 Cells;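 on cell number change: cells counted by Cell Tracker Red CMTPX staining in the red channel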
Conditions: BODIPY lipid droplet fluorescence, 18-24 h; for cell number change: measured here: cell count max response, cells fed with added oleic acid
Summary of the method: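 Drosophila S3 cells loaded with oleic acid (400 uM, as added) and compounds at several concentrations; lipid droplets imaged by 488-nm laser-scanning cytometry, 500–530 nm intensity and object ratio to cell channel. Percent activity normalized to 20 uM Triacsin C.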

[1] = measured here: cell number channel AC50, cells fed with added oleic acid
[2] = measured here: lipid fluorescence (Fed channel) AC50, cells fed with added oleic acid

Q: With `CCN(CC)S(=O)(=O)c1ccc(N2CCCCC2)c(NC(=O)/C(C#N)=C/c2ccc(OC)cc2)c1` as the molecule, how does the cell number change read?
A: 35.6%

Q: What about the AC50 [1] of the same molecule?
A: 2.91 µM [rising, partial curve]

Q: And the AC50 [2]?
A: 3.26 µM [rising, full curve]

Q: Which AC50 [2] does the source give for `CCc1cccc(NS(=O)(=O)c2c(C)nc3scc(C)n3c2=O)c1` here?
A: 6.51 µM [falling, single point]

Q: Which cell number change does the source give for `O=C(COC(=O)c1cnccn1)Nc1ncc(Cl)cc1Cl` here?
A: 7.5%

Q: Which cell number change does the source give for `O=C(COC(=O)C1=NN(c2ccccc2)C(=O)CC1)NCc1ccccc1Cl` here?
A: -2.17%

Q: What about the AC50 [2] of the same molecule?
A: 0.731 µM [falling, single point]

Q: With `COC(=O)c1sc(N)c(C(=O)OC)c1COC(=O)[C@@H](NS(=O)(=O)c1cccc(Cl)c1)C(C)C` as the molecule, how does the cell number change read?
A: 20.9%

Q: Which cell number change does the source give for `CC(SCC(=O)NC12CC3CC(CC(C3)C1)C2)C(=O)O` (stereo not drawn) here?
A: 50%

Q: And the AC50 [1]?
A: 29.1 µM [rising, single point]

Q: Which cell number change does the source give for `O=C1NC(=Nc2cccc(O)c2)S/C1=C\c1cccc([N+](=O)[O-])c1` here?
A: 8.45%

Q: Which cell number change does the source give for `N#Cc1nc(-c2ccco2)oc1N1CCOCC1` here?
A: -19.5%

Q: And the AC50 [1]?
A: 6.51 µM [falling, single point]

Q: For `COc1ccc(CC(=O)NCc2nnc(SCC(=O)Nc3nccs3)n2C)cc1`, which cell number change is on record?
A: 57.7%

Q: What about the AC50 [1] of the same molecule?
A: 29.1 µM [rising, single point]

Q: Which cell number change does the source give for `COc1ccc(NC(=O)CN2CCN(CC(=O)Nc3ccc(F)cc3F)CC2)cc1` here?
A: 5.56%

Q: What about the AC50 [2] of the same molecule?
A: 6.51 µM [falling, partial curve, poor fit]

Q: For `CC(c1ccccc1)N1CC(C(=O)N2CCN(c3ccccc3)CC2)CC1=O` (stereo not drawn), which cell number change is on record?
A: 39.9%

Q: And the AC50 [1]?
A: 0.146 µM [rising, partial curve, poor fit]

Q: Which results are given for `Cc1ccc(S(=O)(=O)NNC(=O)C(=O)NNc2ccccn2)cc1`?
A: cell number change: -4.27%; AC50 [2]: 0.082 µM [rising, full curve, poor fit]

Q: Which cell number change does the source give for `CC1(c2ccccc2Cl)NC(=O)N(CC(=O)NCc2ccco2)C1=O` (stereo not drawn) here?
A: -22.8%

Q: What about the AC50 [2] of the same molecule?
A: 5.8 µM [rising, single point]

Q: With `CN1CCN(C(=O)/C(=C/c2cccnc2)NC(=O)c2cccc(Br)c2)CC1` as the molecule, how does the AC50 [2] read?
A: 0.291 µM [falling, partial curve, poor fit]

Q: For `c1ccc2c(c1)CCN(C1=Nc3cccc4cccc1c34)C2`, which cell number change is on record?
A: 3.66%

Q: And the AC50 [2]?
A: 0.00517 µM [falling, full curve, poor fit]

Q: With `Cc1cc(NC(=O)c2cc(-c3ccc(Br)cc3)on2)no1` as the molecule, how does the cell number change read?
A: 22.2%

Q: And the AC50 [1]?
A: 0.58 µM [rising, partial curve]

Q: And the AC50 [2]?
A: 0.164 µM [rising, full curve, poor fit]

Q: With `Cc1nnc(N/N=C/c2cc([N+](=O)[O-])c(N3CCC(C)CC3)cc2N2CCC(C)CC2)n1N` as the molecule, how does the cell number change read?
A: -62.8%

Q: And the AC50 [2]?
A: 23.1 µM [falling, single point]

Q: With `Cc1cc(C(=O)NNC(=O)Nc2cccc(C(F)(F)F)c2)no1` as the molecule, how does the cell number change read?
A: -11.1%

Q: What about the AC50 [2] of the same molecule?
A: 5.8 µM [falling, partial curve]

Q: Which cell number change does the source give for `COC(=O)[C@@H](NC(=O)NC1CCCc2ccccc21)C(C)C` (stereo partly drawn) here?
A: 4.38%

Q: And the AC50 [2]?
A: 0.00461 µM [falling, full curve, poor fit]

Q: Which results are given for `C=CCn1c(Cc2csc(N)n2)nnc1SCC(=O)Nc1ccccc1C(F)(F)F`?
A: cell number change: 75%; AC50 [1]: 8.2 µM [rising, partial curve]; AC50 [2]: 14.6 µM [rising, partial curve]

Q: With `CC1CCc2c(sc(NC(=O)Cn3nc(C(F)(F)F)c4c3CCCCC4)c2C#N)C1` (stereo not drawn) as the molecule, how does the cell number change read?
A: -14.3%

Q: For `O=C(c1ccc(Cl)cc1)n1cnc2ccccc21`, which cell number change is on record?
A: 10.6%

Q: Which cell number change does the source give for `Cc1cc(C)c(NC(=O)CN(C2CCCCC2)C2CCCCC2)c(C)c1` here?
A: -60%

Q: What about the AC50 [1] of the same molecule?
A: 18.4 µM [falling, partial curve]

Q: What does the source list for `C[N+]1(C2CCC3CCC2C3O)CCCC1` (stereo not drawn)?
A: cell number change: 74.3%; AC50 [1]: 2.06 µM [rising, partial curve]

Q: Which cell number change does the source give for `O=C(O)c1ccc(S(=O)(=O)c2ccccc2)cc1` here?
A: 3.11%

Q: And the AC50 [2]?
A: 6.51 µM [rising, single point]

Q: For `Cc1cccc(Nc2nnc(SCc3cc(=O)n4cc(C)ccc4n3)s2)c1`, which cell number change is on record?
A: 7.31%

Q: What does the source list for `Cc1cc(C)n(-c2ccc(C(=O)Nc3cccc(S(=O)(=O)N(C)C)c3)cc2)n1`?
A: cell number change: -49.6%; AC50 [1]: 20.6 µM [falling, partial curve]; AC50 [2]: 11.6 µM [falling, partial curve]

Q: With `CC(=O)N1CCN(S(=O)(=O)c2ccc(C)cc2)C1C(C)C` (stereo not drawn) as the molecule, how does the cell number change read?
A: 4.45%

Q: And the AC50 [2]?
A: 5.8 µM [falling, single point]

Q: For `Cc1cc(C)c2c(n1)sc1c(N3CCCCC3)ncnc12`, which cell number change is on record?
A: -0.516%

Q: What about the AC50 [2] of the same molecule?
A: 0.116 µM [rising, full curve, poor fit]

Q: Which cell number change does the source give for `Cc1cccc(C(=O)NCC(=O)NCC(c2ccco2)N2CCCCC2)c1` (stereo not drawn) here?
A: 3.86%

Q: What about the AC50 [1] of the same molecule?
A: 6.51 µM [falling, single point]

Q: What about the AC50 [2] of the same molecule?
A: 6.51 µM [falling, single point]

Q: For `Cc1cc(-n2nc(C)cc2C)n2nc(C)c(-c3ccccc3)c2n1`, which cell number change is on record?
A: 63.9%

Q: And the AC50 [1]?
A: 9.2 µM [rising, partial curve]

Q: What about the AC50 [2] of the same molecule?
A: 4.11 µM [rising, partial curve]

Q: Which cell number change does the source give for `COc1cc(C(=O)NC(=S)Nc2nc(-c3ccc(F)cc3)cs2)cc(OC)c1OC` here?
A: 6.99%

Q: What about the AC50 [2] of the same molecule?
A: 0.517 µM [rising, partial curve]

Q: Which AC50 [1] does the source give for `O=C(CSc1nccn(-c2ccc(Br)cc2)c1=O)NCc1ccccc1` here?
A: 4.61 µM [rising, single point]

Q: For `CCOC(=O)C1=C(C)N=c2s/c(=C/c3cccc([N+](=O)[O-])c3O)c(=O)n2C1c1ccccc1` (stereo not drawn), which cell number change is on record?
A: -15.5%

Q: What about the AC50 [2] of the same molecule?
A: 29.1 µM [falling, single point]

Q: For `N/C(=N\OC(=O)c1cc(-c2ccccc2)nc2ccccc12)c1ccncc1`, which cell number change is on record?
A: -11.9%

Q: What about the AC50 [1] of the same molecule?
A: 0.517 µM [falling, single point]

Q: Which cell number change does the source give for `Cc1ccccc1OCc1ccc(C(=O)N2CCOCC2)o1` here?
A: 18.9%

Q: What about the AC50 [2] of the same molecule?
A: 29.1 µM [rising, single point]

Q: With `CCN(CC)c1ccc2nc3ccccc3[n+](CC)c2c1` as the molecule, how does the cell number change read?
A: -73.1%

Q: What about the AC50 [1] of the same molecule?
A: 25.9 µM [falling, partial curve, poor fit]

Q: And the AC50 [2]?
A: 0.731 µM [falling, full curve]

Q: For `Cc1ccc(N2CC(NC(=O)C(=O)c3c(C)[nH]c4ccccc34)CC2=O)cc1` (stereo not drawn), which cell number change is on record?
A: 28.3%
